Data reported in the supplement of paper PMC12823440, “Inhibitors supercharge kinase turnover through native proteolytic circuits” (Nature, 2025).
Some of the results follow. The calls rarely recur for the same compound in another form.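 Kinases were expressed as nanoluciferase fusions in K562 cells and luminescence was read every 4 h between 2 and 18 h as percent of control, DMSO set to 100% and a positive control to 0%. A time point counts as decreased when the signal drops significantly (2 sigma). The hit call is the authors' own, does not follow from the count of time points alone, and its rule is not shown.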

Amino acid sequences for entries named in this document (tags omitted). A change or cut given only in a name is not applied to a line headed by its entry.
UniProt P42356, whole entry, looked up: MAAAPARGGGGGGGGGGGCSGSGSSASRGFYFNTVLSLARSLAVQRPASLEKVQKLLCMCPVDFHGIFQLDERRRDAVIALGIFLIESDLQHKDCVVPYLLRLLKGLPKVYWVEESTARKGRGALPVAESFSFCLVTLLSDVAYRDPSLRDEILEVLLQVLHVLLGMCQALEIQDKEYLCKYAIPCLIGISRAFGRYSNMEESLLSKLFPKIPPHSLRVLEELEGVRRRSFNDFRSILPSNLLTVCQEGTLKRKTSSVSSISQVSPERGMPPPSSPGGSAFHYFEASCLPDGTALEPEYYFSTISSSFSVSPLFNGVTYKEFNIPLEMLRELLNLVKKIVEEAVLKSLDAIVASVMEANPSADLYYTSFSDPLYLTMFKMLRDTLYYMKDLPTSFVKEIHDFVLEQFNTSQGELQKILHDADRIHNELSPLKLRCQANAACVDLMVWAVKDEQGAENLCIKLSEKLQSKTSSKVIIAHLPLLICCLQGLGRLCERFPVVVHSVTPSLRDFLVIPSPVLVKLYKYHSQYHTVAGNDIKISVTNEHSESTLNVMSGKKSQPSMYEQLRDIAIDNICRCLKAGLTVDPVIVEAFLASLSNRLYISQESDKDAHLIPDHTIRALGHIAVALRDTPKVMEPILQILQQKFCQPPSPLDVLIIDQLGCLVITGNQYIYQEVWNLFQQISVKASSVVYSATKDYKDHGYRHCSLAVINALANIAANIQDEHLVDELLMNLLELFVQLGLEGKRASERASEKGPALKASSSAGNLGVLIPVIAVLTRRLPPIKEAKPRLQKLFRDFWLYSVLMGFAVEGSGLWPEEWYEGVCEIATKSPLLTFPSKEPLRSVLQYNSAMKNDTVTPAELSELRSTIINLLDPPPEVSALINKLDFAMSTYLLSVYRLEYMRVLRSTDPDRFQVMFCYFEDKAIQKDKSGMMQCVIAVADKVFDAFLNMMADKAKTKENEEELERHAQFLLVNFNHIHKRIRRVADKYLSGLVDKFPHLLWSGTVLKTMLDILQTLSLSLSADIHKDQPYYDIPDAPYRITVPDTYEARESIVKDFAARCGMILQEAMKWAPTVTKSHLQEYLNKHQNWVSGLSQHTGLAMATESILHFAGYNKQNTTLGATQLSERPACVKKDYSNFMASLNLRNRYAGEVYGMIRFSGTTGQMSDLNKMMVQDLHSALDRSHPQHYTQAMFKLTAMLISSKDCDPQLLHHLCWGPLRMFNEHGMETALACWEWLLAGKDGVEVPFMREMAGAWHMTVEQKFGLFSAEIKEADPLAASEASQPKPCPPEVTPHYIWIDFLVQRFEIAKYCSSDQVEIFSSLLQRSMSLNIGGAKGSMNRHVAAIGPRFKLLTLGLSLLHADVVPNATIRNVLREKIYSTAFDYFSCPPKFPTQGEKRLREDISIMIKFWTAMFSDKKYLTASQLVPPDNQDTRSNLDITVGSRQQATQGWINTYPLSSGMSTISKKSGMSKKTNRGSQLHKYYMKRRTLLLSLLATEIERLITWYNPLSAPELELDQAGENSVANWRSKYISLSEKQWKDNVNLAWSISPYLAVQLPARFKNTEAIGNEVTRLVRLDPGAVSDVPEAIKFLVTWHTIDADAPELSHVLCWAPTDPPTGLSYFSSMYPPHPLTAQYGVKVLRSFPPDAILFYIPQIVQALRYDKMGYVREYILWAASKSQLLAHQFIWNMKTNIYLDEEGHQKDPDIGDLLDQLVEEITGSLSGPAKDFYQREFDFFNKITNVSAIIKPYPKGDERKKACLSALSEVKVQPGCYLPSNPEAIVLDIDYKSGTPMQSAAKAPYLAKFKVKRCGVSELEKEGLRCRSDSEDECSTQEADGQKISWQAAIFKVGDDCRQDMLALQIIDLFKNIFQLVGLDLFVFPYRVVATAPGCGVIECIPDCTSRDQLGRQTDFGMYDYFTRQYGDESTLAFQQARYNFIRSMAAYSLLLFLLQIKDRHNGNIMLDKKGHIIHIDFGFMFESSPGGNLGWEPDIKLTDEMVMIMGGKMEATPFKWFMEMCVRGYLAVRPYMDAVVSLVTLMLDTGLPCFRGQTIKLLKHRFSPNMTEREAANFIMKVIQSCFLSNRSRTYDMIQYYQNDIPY
UniProt Q9UBF8: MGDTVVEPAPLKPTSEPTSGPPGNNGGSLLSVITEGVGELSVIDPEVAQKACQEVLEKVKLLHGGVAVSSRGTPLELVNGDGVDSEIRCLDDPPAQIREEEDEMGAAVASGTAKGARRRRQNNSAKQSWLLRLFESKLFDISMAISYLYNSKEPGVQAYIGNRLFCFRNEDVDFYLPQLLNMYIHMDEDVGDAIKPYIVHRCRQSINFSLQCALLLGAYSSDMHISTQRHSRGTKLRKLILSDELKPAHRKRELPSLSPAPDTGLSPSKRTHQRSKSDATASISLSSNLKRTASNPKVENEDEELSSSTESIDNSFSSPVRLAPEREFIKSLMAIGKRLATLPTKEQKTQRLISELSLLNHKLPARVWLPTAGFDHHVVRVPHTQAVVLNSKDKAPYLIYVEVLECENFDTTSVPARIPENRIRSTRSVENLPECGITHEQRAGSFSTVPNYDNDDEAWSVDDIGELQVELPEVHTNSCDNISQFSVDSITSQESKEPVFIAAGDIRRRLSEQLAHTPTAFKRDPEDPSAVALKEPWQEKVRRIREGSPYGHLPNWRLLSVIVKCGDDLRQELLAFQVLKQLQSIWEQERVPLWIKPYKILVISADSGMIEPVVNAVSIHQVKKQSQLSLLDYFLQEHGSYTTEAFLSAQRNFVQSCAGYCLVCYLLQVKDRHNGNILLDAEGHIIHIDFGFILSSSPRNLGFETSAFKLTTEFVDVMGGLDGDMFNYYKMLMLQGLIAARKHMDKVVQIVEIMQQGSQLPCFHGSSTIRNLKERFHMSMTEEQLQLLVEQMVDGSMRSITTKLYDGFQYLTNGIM
UniProt P53350, whole entry: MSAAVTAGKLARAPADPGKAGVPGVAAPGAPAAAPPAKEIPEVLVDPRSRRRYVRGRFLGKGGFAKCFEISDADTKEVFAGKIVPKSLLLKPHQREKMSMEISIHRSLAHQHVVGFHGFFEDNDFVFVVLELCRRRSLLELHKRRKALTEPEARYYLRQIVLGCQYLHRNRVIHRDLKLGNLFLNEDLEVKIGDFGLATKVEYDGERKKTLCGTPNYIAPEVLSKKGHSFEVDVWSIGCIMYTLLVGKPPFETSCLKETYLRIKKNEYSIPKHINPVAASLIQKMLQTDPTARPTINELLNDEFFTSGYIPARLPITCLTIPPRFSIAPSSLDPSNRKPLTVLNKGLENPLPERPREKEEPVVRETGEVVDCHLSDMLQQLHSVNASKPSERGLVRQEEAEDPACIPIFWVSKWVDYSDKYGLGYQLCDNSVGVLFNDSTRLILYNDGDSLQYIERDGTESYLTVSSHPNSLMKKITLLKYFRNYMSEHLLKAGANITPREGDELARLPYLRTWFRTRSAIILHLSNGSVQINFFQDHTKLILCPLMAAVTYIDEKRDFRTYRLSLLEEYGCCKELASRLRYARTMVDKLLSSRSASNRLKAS
UniProt Q05397, whole entry, looked up: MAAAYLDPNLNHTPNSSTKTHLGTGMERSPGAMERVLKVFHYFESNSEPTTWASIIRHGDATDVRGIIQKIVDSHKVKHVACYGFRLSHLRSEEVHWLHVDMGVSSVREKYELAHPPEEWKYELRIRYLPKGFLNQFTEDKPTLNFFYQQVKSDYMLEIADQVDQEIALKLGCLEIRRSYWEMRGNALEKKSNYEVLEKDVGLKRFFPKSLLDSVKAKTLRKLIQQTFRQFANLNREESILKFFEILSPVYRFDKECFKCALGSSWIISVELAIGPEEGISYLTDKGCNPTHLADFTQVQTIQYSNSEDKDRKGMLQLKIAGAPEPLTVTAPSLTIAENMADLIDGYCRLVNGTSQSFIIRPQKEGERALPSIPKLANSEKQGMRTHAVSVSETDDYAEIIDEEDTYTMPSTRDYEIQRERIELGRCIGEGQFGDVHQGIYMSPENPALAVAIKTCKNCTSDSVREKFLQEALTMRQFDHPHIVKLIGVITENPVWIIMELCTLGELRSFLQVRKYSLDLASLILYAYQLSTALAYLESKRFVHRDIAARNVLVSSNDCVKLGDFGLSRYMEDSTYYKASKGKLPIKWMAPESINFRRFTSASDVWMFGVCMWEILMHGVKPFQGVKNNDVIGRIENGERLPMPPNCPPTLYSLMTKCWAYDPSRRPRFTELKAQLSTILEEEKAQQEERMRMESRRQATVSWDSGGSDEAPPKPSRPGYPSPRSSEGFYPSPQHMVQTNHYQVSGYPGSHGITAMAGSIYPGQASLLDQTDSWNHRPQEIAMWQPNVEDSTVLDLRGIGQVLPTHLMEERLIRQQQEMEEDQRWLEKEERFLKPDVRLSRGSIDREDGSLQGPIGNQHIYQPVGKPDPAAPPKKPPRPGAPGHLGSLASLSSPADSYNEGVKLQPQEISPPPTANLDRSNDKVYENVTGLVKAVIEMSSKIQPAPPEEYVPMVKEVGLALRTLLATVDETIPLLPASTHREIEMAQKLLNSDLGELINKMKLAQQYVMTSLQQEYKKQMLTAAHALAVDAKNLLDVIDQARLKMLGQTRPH
UniProt Q14289, whole entry, looked up: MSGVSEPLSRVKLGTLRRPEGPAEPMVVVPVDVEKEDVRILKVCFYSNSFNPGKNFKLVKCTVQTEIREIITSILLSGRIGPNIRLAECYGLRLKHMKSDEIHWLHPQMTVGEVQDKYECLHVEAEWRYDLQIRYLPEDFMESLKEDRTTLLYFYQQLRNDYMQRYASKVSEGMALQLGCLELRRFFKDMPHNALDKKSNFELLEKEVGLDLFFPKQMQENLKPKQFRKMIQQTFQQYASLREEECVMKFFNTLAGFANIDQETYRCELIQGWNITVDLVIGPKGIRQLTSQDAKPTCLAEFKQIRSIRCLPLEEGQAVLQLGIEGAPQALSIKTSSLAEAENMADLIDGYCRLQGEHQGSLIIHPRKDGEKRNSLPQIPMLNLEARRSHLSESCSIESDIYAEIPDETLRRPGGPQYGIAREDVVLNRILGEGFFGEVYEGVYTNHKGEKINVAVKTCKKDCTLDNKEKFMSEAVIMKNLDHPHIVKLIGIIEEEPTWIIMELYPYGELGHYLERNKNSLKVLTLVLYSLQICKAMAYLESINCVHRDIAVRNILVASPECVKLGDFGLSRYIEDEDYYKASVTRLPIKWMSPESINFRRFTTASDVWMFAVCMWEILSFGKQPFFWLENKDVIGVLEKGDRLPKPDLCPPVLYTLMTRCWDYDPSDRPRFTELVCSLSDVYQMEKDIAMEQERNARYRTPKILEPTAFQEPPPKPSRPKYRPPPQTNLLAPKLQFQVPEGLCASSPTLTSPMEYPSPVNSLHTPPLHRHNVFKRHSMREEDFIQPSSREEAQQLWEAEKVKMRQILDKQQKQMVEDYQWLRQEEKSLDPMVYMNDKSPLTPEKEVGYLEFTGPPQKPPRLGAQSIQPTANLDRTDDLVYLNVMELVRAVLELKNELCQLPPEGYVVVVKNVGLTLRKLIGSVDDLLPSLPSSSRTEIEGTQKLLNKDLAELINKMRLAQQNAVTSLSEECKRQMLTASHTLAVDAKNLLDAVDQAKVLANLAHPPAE

Columns and labels:
Experiment in all cases: kinase-Nluc reporter destabilization hit call (1 = scored as downregulated) (binary); higher = compound decreases kinase abundance
Conditions in all cases: K562; 2-18 h
PDPK1 = PDPK1 (UniProt O15530)
PIK4CA = PIK4CA (UniProt P42356)
PIK4CB = PIK4CB (UniProt Q9UBF8)
PLK1 = PLK1 (UniProt P53350)
PRKAA1 = PRKAA1 (UniProt Q13131)
PRKCA = PRKCA (UniProt P17252)
PTK2 = PTK2 (UniProt Q05397)
PTK2B = PTK2B (UniProt Q14289)
RAF1 = RAF1 (UniProt P04049)
[1] = target: RAF1_S257L (clone: RAF1_mut) (UniProt P04049)

Measured: kinase-Nluc reporter destabilization hit call

CNCc1ccccc1-c1csc([C@@H](C)Nc2nc(C)nc3cc(OC)c(OC)cc23)c1 (2.5 µM)
inactive: PDPK1 = 0 | PIK4CA 0 | PIK4CB 0 | PLK1 = 0 | PRKAA1 = 0 | PRKCA 0 | PTK2 = 0 | PTK2B 0 | RAF1 = 0 | [1] 0

OC(COc1ccc(C(F)(F)F)cc1)CN(Cc1ccccc1)Cc1ccccc1 (stereo not given) (2.5 µM)
inactive: PDPK1 = 0 | PIK4CA 0 | PIK4CB 0 | PLK1 = 0 | PRKAA1 = 0 | PRKCA 0 | PTK2 = 0 | PTK2B 0 | RAF1 = 0 | [1] 0

CCOc1cc(C(=O)N2CCC(N3CCN(C)CC3)CC2)ccc1Nc1ncc2c(n1)N(C1CCCC1)c1ccccc1C(=O)N2C (10 µM)
inactive: PDPK1 = 0 | PIK4CA 0 | PIK4CB 0 | PLK1 = 0 | PRKAA1 = 0 | PRKCA 0 | PTK2 = 0 | PTK2B 0 | RAF1 = 0 | [1] 0

Cn1nccc1Nc1nccc(-c2cc3c(s2)C(C)(C)N(CCN2CCOCC2)C3=O)n1 (10 µM)
inactive: PDPK1 = 0 | PIK4CA 0 | PIK4CB 0 | PLK1 = 0 | PRKAA1 = 0 | PRKCA 0 | PTK2 = 0 | PTK2B 0 | RAF1 = 0 | [1] 0

COc1ccc(CC(=O)Nc2nc3c(s2)CCc2ccccc2-3)cc1OC (10 µM)
inactive: PDPK1 = 0 | PIK4CA 0 | PIK4CB 0 | PLK1 = 0 | PRKAA1 = 0 | PRKCA 0 | PTK2 = 0 | PTK2B 0 | RAF1 = 0 | [1] 0

CC/C=C\C/C=C\C/C=C\CCCCCCCC(=O)O [α-Linolenic acid] (10 µM)
inactive: PDPK1 = 0 | PIK4CA 0 | PIK4CB 0 | PLK1 = 0 | PRKAA1 = 0 | PRKCA 0 | PTK2 = 0 | PTK2B 0 | RAF1 = 0 | [1] 0

Fc1ccc(-c2nc(-c3c(F)cccc3F)[nH]c2-c2ccncc2)cc1 (10 µM)
inactive: PDPK1 = 0 | PIK4CA 0 | PIK4CB 0 | PLK1 = 0 | PRKAA1 = 0 | PRKCA 0 | PTK2 = 0 | PTK2B 0 | RAF1 = 0 | [1] 0

O=C(Nc1nc2ccccc2[nH]1)c1cccc(-n2cccc2)c1 (10 µM)
inactive: PDPK1 = 0 | PIK4CA 0 | PIK4CB 0 | PLK1 = 0 | PRKAA1 = 0 | PRKCA 0 | PTK2 = 0 | PTK2B 0 | RAF1 = 0 | [1] 0

CC(C)(NS(=O)(=O)c1ccc2c(Cl)cnc(N=C(N)N)c2c1)C(=O)O (10 µM)
inactive: PDPK1 = 0 | PIK4CA 0 | PIK4CB 0 | PLK1 = 0 | PRKAA1 = 0 | PRKCA 0 | PTK2 = 0 | PTK2B 0 | RAF1 = 0 | [1] 0

O=C(NCCO)c1ccc2c(c1)nc(Nc1cccc(Cl)c1)c1ccncc12 [CK2 inhibitor 2] (10 µM)
inactive: PDPK1 = 0 | PIK4CA 0 | PIK4CB 0 | PLK1 = 0 | PRKAA1 = 0 | PRKCA 0 | PTK2 = 0 | PTK2B 0 | RAF1 = 0 | [1] 0

Arranged by molecular weight (ascending): some entries from above
CC/C=C\C/C=C\C/C=C\CCCCCCCC(=O)O [α-Linolenic acid] (10 µM)
inactive: PDPK1 = 0 | PIK4CA 0 | PIK4CB 0 | PLK1 = 0 | PRKAA1 = 0 | PRKCA 0 | PTK2 = 0 | PTK2B 0 | RAF1 = 0 | [1] 0

Cn1nccc1Nc1nccc(-c2cc3c(s2)C(C)(C)N(CCN2CCOCC2)C3=O)n1 (10 µM)
inactive: PDPK1 = 0 | PIK4CA 0 | PIK4CB 0 | PLK1 = 0 | PRKAA1 = 0 | PRKCA 0 | PTK2 = 0 | PTK2B 0 | RAF1 = 0 | [1] 0

CCOc1cc(C(=O)N2CCC(N3CCN(C)CC3)CC2)ccc1Nc1ncc2c(n1)N(C1CCCC1)c1ccccc1C(=O)N2C (10 µM)
inactive: PDPK1 = 0 | PIK4CA 0 | PIK4CB 0 | PLK1 = 0 | PRKAA1 = 0 | PRKCA 0 | PTK2 = 0 | PTK2B 0 | RAF1 = 0 | [1] 0

More results

C[C@@H]1O[C@@H](O[C@H]2[C@H](Oc3cc(O)c4c(=O)cc(-c5ccc(O)cc5)oc4c3)O[C@H](CO)[C@@H](O)[C@@H]2O)[C@H](O)[C@H](O)[C@H]1O [Rhoifolin] (10 µM)
inactive: PDPK1 = 0 | PIK4CA 0 | PIK4CB 0 | PLK1 = 0 | PRKAA1 = 0 | PRKCA 0 | PTK2 = 0 | PTK2B 0 | RAF1 = 0 | [1] 0

O=c1oc2cc(O)ccc2c2ccccc12 [Urolithin B] (10 µM)
inactive: PDPK1 = 0 | PIK4CA 0 | PIK4CB 0 | PLK1 = 0 | PRKAA1 = 0 | PRKCA 0 | PTK2 = 0 | PTK2B 0 | RAF1 = 0 | [1] 0

COc1cc(C(N)=O)nc(-c2cccc(C#C[C@]3(O)CCN(C)C3=O)c2)c1 (10 µM)
inactive: PDPK1 = 0 | PIK4CA 0 | PIK4CB 0 | PLK1 = 0 | PRKAA1 = 0 | PRKCA 0 | PTK2 = 0 | PTK2B 0 | RAF1 = 0 | [1] 0

Nc1ncnc2c1c(-c1ccc(Oc3ccccc3)cc1)nn2C1CCCNC1 (racemic) (2.5 µM)
inactive: PDPK1 = 0 | PIK4CA 0 | PIK4CB 0 | PLK1 = 0 | PRKAA1 = 0 | PRKCA 0 | PTK2 = 0 | PTK2B 0 | RAF1 = 0 | [1] 0

C=C(C)C(=O)Nc1cccc(-c2ncnc3[nH]cc(C(=O)OCC)c23)c1 (10 µM)
inactive: PDPK1 = 0 | PIK4CA 0 | PIK4CB 0 | PLK1 = 0 | PRKAA1 = 0 | PRKCA 0 | PTK2 = 0 | PTK2B 0 | RAF1 = 0 | [1] 0

C[C@@H](c1ccc2nccn2c1)n1nnc2ncc(-c3cnn(C)c3)nc21 [Savolitinib] (10 µM)
inactive: PDPK1 = 0 | PIK4CA 0 | PIK4CB 0 | PLK1 = 0 | PRKAA1 = 0 | PRKCA 0 | PTK2 = 0 | PTK2B 0 | RAF1 = 0 | [1] 0

Cc1ccc(Nc2cc(-c3cccc(N4C(=O)c5ccccc5C4=O)c3)ncn2)cc1NS(C)(=O)=O (10 µM)
inactive: PDPK1 = 0 | PIK4CA 0 | PIK4CB 0 | PLK1 = 0 | PRKAA1 = 0 | PRKCA 0 | PTK2 = 0 | PTK2B 0 | RAF1 = 0 | [1] 0

Cn1c(=O)c(F)c(Nc2ccc(I)cc2F)c2c(=O)n(C[C@@H](O)CO)cnc21 (10 µM)
inactive: PDPK1 = 0 | PIK4CA 0 | PIK4CB 0 | PLK1 = 0 | PRKAA1 = 0 | PRKCA 0 | PTK2 = 0 | PTK2B 0 | RAF1 = 0 | [1] 0

CS(=O)(=O)c1ccc(-c2noc(C(F)(F)F)c2-c2ccccc2)cc1 (10 µM)
inactive: PDPK1 = 0 | PIK4CA 0 | PIK4CB 0 | PLK1 = 0 | PRKAA1 = 0 | PRKCA 0 | PTK2 = 0 | PTK2B 0 | RAF1 = 0 | [1] 0

Cc1ccc2nc(NC(=O)CSc3nc4c(c(=O)n3-c3ccccc3)SCC4)sc2c1 (2 µM)
inactive: PDPK1 = 0 | PIK4CA 0 | PIK4CB 0 | PLK1 = 0 | PRKAA1 = 0 | PRKCA 0 | PTK2 = 0 | PTK2B 0 | RAF1 = 0 | [1] 0

COCCO[C@@H]1[C@H](O)[C@@H](CO)O[C@H]1n1cnc2c(=O)[nH]c(N)nc21 [2′-O-(2-Methoxyethyl)guanosine] (10 µM)
inactive: PDPK1 = 0 | PIK4CA 0 | PIK4CB 0 | PLK1 = 0 | PRKAA1 = 0 | PRKCA 0 | PTK2 = 0 | PTK2B 0 | RAF1 = 0 | [1] 0

COc1cc2ncnc(Nc3cccc(Cl)c3)c2cc1OC (10 µM)
inactive: PDPK1 = 0 | PIK4CA 0 | PIK4CB 0 | PLK1 = 0 | PRKAA1 = 0 | PRKCA 0 | PTK2 = 0 | PTK2B 0 | RAF1 = 0 | [1] 0

Cc1ccc(S(=O)(=O)/C=C/C#N)cc1 (10 µM)
inactive: PDPK1 = 0 | PIK4CA 0 | PIK4CB 0 | PLK1 = 0 | PRKAA1 = 0 | PRKCA 0 | PTK2 = 0 | PTK2B 0 | RAF1 = 0 | [1] 0

CCN(CC)c1ccc2cc(C(=O)N3CCN(C(=O)C4=Cc5c(Br)cccc5S4(=O)=O)CC3)c(=O)oc2c1 (2 µM)
inactive: PDPK1 = 0 | PIK4CA 0 | PIK4CB 0 | PLK1 = 0 | PRKAA1 = 0 | PRKCA 0 | PTK2 = 0 | PTK2B 0 | RAF1 = 0 | [1] 0

CC(C)NC(=O)N1CC[C@H](NC2=Nc3cc(F)ccc3N(CC(F)F)c3ccc(Cl)cc32)C1 (10 µM)
inactive: PDPK1 = 0 | PIK4CA 0 | PIK4CB 0 | PLK1 = 0 | PRKAA1 = 0 | PRKCA 0 | PTK2 = 0 | PTK2B 0 | RAF1 = 0 | [1] 0

CCN1CCN(Cc2ccc(Nc3ncc(F)c(-c4cc(F)c5nc(CO)n(C(C)C)c5c4)n3)nc2)CC1 [Abemaciclib metabolite M20] (2 µM)
inactive: PDPK1 = 0 | PIK4CA 0 | PIK4CB 0 | PLK1 = 0 | PRKAA1 = 0 | PRKCA 0 | PTK2 = 0 | PTK2B 0 | RAF1 = 0 | [1] 0

CC(C)(C)NC(=O)c1cncn1C1CCN(c2ccc(-c3nnc(C(F)(F)F)o3)cn2)CC1 (10 µM)
inactive: PDPK1 = 0 | PIK4CA 0 | PIK4CB 0 | PLK1 = 0 | PRKAA1 = 0 | PRKCA 0 | PTK2 = 0 | PTK2B 0 | RAF1 = 0 | [1] 0

COc1ccc(C2CC(c3ccccc3)=NN2c2ccc(S(N)(=O)=O)cc2)cc1 (stereo not given) (10 µM)
inactive: PDPK1 = 0 | PIK4CA 0 | PIK4CB 0 | PLK1 = 0 | PRKAA1 = 0 | PRKCA 0 | PTK2 = 0 | PTK2B 0 | RAF1 = 0 | [1] 0

Cc1cc([C@H](C)Nc2ccccc2)c2oc(N3CCOCC3)cc(=O)c2c1 (10 µM)
inactive: PDPK1 = 0 | PIK4CA 0 | PIK4CB 0 | PLK1 = 0 | PRKAA1 = 0 | PRKCA 0 | PTK2 = 0 | PTK2B 0 | RAF1 = 0 | [1] 0
